The list is a part of this screen's results and no random one: it gathers tests that were run many times, whatever their T/C, doses with no T/C, and many T/C values between a quarter and a half above the control. Further doses and runs are listed elsewhere. T/C is the treated group as % of the vehicle group. Some doses have a count of surviving animals in place of a T/C: the source holds a T/C of zero for them, seemingly a mark for toxic or unscored doses. Some doses without a T/C left all or most animals alive at the check, yet need not have been tolerated: the source hardly ever lists a survival T/C far under the control, and the zero likely stands for such cases as well. Counts of survivors are from the toxicity check (mostly the fifth day) where no day follows; animals may have died later. Schedule codes are those of the source, read here as Q, the interval in days (D) or hours (H), X, the number of doses. Some doses were run more than once; the values are given in rising order. Some schedules carry Z or #; the key to these is not given. Counts like (3×) give the number of equal values in this list. For survival time, the PubChem record calls one and a half times the control and up active, and a quarter to a half above the control has no call in these data; cut-offs in other NCI protocols can differ. Some T/C values carry the count of animals alive at the toxicity check (mostly the fifth day); without a count, all were alive then.
Test system: L1210 leukemia ip in BDF1 mice, survival T/C
Assay: NCI In Vivo Anticancer Drug Screen. Data for tumor model L1210 Leukemia (intraperitoneal) in B6D2F1 (BDF1) mice
Conditions: T/C endpoint: mean survival time, higher T/C = longer survival
[1] = dose: 50.0 mg/kg/injection, schedule: Q01DX005 (ip), vehicle: saline
[2] = dose: 50.0 mg/kg/injection, schedule: Q01DX009 (ip), vehicle: saline

## Nc1nc(=S)c2ncn(C3OC(CO)C(O)C3O)c2[nH]1 (configuration not stated)
dose: 0.25 mg/kg/injection, schedule: Q01DX Z (ip), vehicle: carboxymethylcellulose (CMC)
  T/C: 131 % of control
dose: 0.29 mg/kg/injection, schedule: Q01DX Z (ip), vehicle: saline
  T/C: 130 % of control
dose: 0.4 mg/kg/injection, schedule: Q01DX009 (ip), vehicle: carboxymethylcellulose (CMC)
  T/C: 134 % of control
dose: 0.44 mg/kg/injection, schedule: Q01DX Z (ip), vehicle: saline
  T/C: 140 % of control
dose: 0.5 mg/kg/injection, schedule: Q01DX015 (ip), vehicle: carboxymethylcellulose (CMC), evaluated on day 46
  T/C: 128 % of control
dose: 0.5 mg/kg/injection, schedule: Q01DX015 (ip), vehicle: carboxymethylcellulose (CMC), evaluated on day 60
  T/C: 137 % of control
dose: 0.66 mg/kg/injection, schedule: Q01DX Z (ip), vehicle: saline
  T/C: 143 % of control
dose: 0.75 mg/kg/injection, schedule: Q01DX005 (ip), vehicle: carboxymethylcellulose (CMC)
  T/C: 148 % of control
dose: 0.75 mg/kg/injection, schedule: Q01DX015 (ip), vehicle: carboxymethylcellulose (CMC)
  T/C: 139 % of control
dose: 0.75 mg/kg/injection, schedule: Q01DX Z (ip), vehicle: carboxymethylcellulose (CMC)
  T/C: 125 and 137 % of control
dose: 0.78 mg/kg/injection, schedule: Q01DX Z (ip), vehicle: carboxymethylcellulose (CMC)
  T/C: 146 % of control
dose: 1.0 mg/kg/injection, schedule: Q01DX015 (ip), vehicle: carboxymethylcellulose (CMC), evaluated on day 46
  T/C: 140, 152, 165 % of control
dose: 1.0 mg/kg/injection, schedule: Q01DX015 (ip), vehicle: carboxymethylcellulose (CMC), evaluated on day 60
  T/C: 163 % of control
dose: 1.0 mg/kg/injection, schedule: Q01DX015 (ip), vehicle: carboxymethylcellulose (CMC), run until all animals had died
  T/C: 198 % of control
dose: 1.0 mg/kg/injection, schedule: Q01DX Z (ip), vehicle: carboxymethylcellulose (CMC)
  T/C: 139 % of control
dose: 1.3 mg/kg/injection, schedule: Q01DX Z (ip), vehicle: carboxymethylcellulose (CMC)
  T/C: 135 % of control
dose: 1.6 mg/kg/injection, schedule: Q01DX009 (oral), vehicle: carboxymethylcellulose (CMC)
  T/C: 134 % of control
dose: 1.6 mg/kg/injection, schedule: Q01DX009 (sc), vehicle: carboxymethylcellulose (CMC)
  T/C: 143 % of control
dose: 1.8 mg/kg/injection, schedule: Q02DX008 (ip), vehicle: carboxymethylcellulose (CMC)
  T/C: 145 % of control
dose: 2.0 mg/kg/injection, schedule: Q01DX015 (ip), vehicle: other
  T/C: 141 % of control
dose: 2.0 mg/kg/injection, schedule: Q01DX Z (ip), vehicle: carboxymethylcellulose (CMC)
  T/C: 125 % of control
dose: 2.0 mg/kg/injection, schedule: Q01DX Z (ip), vehicle: saline
  T/C: 132 % of control
dose: 2.0 mg/kg/injection, schedule: Q## X024 (ip), vehicle: carboxymethylcellulose (CMC)
  T/C: 146 % of control
dose: 2.75 mg/kg/injection, schedule: Q## X003 (ip), vehicle: carboxymethylcellulose (CMC)
  T/C: 148 % of control
dose: 2.8 mg/kg/injection, schedule: Q## X032 (ip), vehicle: carboxymethylcellulose (CMC)
  T/C: 134 % of control
dose: 3.6 mg/kg/injection, schedule: Q01DX Z (ip), vehicle: carboxymethylcellulose (CMC)
  T/C: 141 % of control
dose: 3.6 mg/kg/injection, schedule: Q01DX Z (oral), vehicle: carboxymethylcellulose (CMC)
  T/C: 128 % of control
dose: 4.0 mg/kg/injection, schedule: Q01DX015 (ip), vehicle: carboxymethylcellulose (CMC)
  T/C: 149 % of control
dose: 4.0 mg/kg/injection, schedule: Q01DX015 (ip), vehicle: other
  T/C: 135 % of control
dose: 4.0 mg/kg/injection, schedule: Q01DX Z (ip), vehicle: carboxymethylcellulose (CMC)
  T/C: 138 % of control
dose: 4.0 mg/kg/injection, schedule: Q01DX Z (ip), vehicle: saline
  T/C: 127 % of control
dose: 4.0 mg/kg/injection, schedule: Q## X032 (ip), vehicle: carboxymethylcellulose (CMC)
  T/C: 130 % of control
dose: 4.7 mg/kg/injection, schedule: Q01DX Z (ip), vehicle: saline
  T/C: 137 % of control
dose: 6.0 mg/kg/injection, schedule: Q01DX Z (ip), vehicle: carboxymethylcellulose (CMC)
  T/C: 130 % of control
dose: 6.4 mg/kg/injection, schedule: Q01DX009 (oral), vehicle: carboxymethylcellulose (CMC)
  T/C: 148 % of control
dose: 9.4 mg/kg/injection, schedule: Q01DX Z (ip), vehicle: saline
  T/C: 143 % of control
dose: 9.6 mg/kg/injection, schedule: Q## X032 (ip), vehicle: carboxymethylcellulose (CMC)
  T/C: 148 % of control [8 of 10 alive]
dose: 10.0 mg/kg/injection, schedule: Q01DX Z (oral), vehicle: carboxymethylcellulose (CMC)
  T/C: 128 % of control
dose: 10.0 mg/kg/injection, schedule: Q## X032 (ip), vehicle: carboxymethylcellulose (CMC)
  T/C: 146 % of control [9 of 10 alive]
dose: 12.5 mg/kg/injection, schedule: Q01DX005 (ip), vehicle: saline
  T/C: 127 and 140 % of control
dose: 13.3 mg/kg/injection, schedule: Q02DX008 (ip), vehicle: carboxymethylcellulose (CMC)
  T/C: 143 % of control
dose: 20.0 mg/kg/injection, schedule: Q02DX008 (ip), vehicle: carboxymethylcellulose (CMC)
  T/C: 149 % of control
dose: 22.0 mg/kg/injection, schedule: Q## X032 (ip), vehicle: carboxymethylcellulose (CMC)
  T/C: 134 % of control
dose: 25.0 mg/kg/injection, schedule: Q01DX009 (ip), vehicle: saline
  survivor count: 6 of 6
dose: 35.0 mg/kg/injection, schedule: Q01DX009 (ip), vehicle: saline
  T/C: 143 % of control
dose: 36.0 mg/kg/injection, schedule: Q## X008 (ip), vehicle: carboxymethylcellulose (CMC)
  T/C: 148 % of control
dose: 37.5 mg/kg/injection, schedule: Q01DX009 (ip), vehicle: saline
  survivor count: 6 of 6
dose: 45.0 mg/kg/injection, schedule: Q01DX001 (oral), vehicle: carboxymethylcellulose (CMC)
  T/C: 148 % of control
dose: 45.0 mg/kg/injection, schedule: Q01DX001 (sc), vehicle: carboxymethylcellulose (CMC)
  T/C: 147 % of control
[1]
  T/C: 130 % of control
  survivor count: 6 of 6
[2]
  T/C: 126 and 136 % of control
  survivor count: 6 of 6
dose: 64.0 mg/kg/injection, schedule: Q## X032 (ip), vehicle: carboxymethylcellulose (CMC)
  survivor count: 5 of 9
dose: 67.0 mg/kg/injection, schedule: Q02DX008 (ip), vehicle: carboxymethylcellulose (CMC)
  T/C: 146 % of control
dose: 72.0 mg/kg/injection, schedule: Q## X008 (ip), vehicle: carboxymethylcellulose (CMC)
  T/C: 137 % of control
dose: 72.0 mg/kg/injection, schedule: Q## X016 (ip), vehicle: carboxymethylcellulose (CMC)
  survivor count: 10 of 10
dose: 75.0 mg/kg/injection, schedule: Q01DX009 (ip), vehicle: saline
  survivor count: 6 of 6
dose: 75.0 mg/kg/injection, schedule: Q01DX010 (ip), vehicle: saline
  survivor count: 6 of 6
dose: 80.0 mg/kg/injection, schedule: Q01DX Z (oral), vehicle: carboxymethylcellulose (CMC)
  survivor count: 3 of 6
dose: 90.0 mg/kg/injection, schedule: Q## X003 (oral), vehicle: carboxymethylcellulose (CMC)
  T/C: 148 % of control
dose: 95.0 mg/kg/injection, schedule: Q01DX001 (ip), vehicle: carboxymethylcellulose (CMC)
  T/C: 149 % of control
dose: 96.0 mg/kg/injection, schedule: Q## X032 (ip), vehicle: carboxymethylcellulose (CMC)
  survivor count: 5 of 10
dose: 100.0 mg/kg/injection, schedule: Q01DX005 (ip), vehicle: saline
  survivor count: 2 of 6 and 6 of 6
dose: 100.0 mg/kg/injection, schedule: Q01DX009 (ip), vehicle: saline
  T/C: 141 % of control [5 of 6 alive]
dose: 144.0 mg/kg/injection, schedule: Q01DX001 (ip), vehicle: carboxymethylcellulose (CMC)
  T/C: 147 % of control
dose: 144.0 mg/kg/injection, schedule: Q## X008 (ip), vehicle: carboxymethylcellulose (CMC)
  survivor count: 10 of 10
dose: 144.0 mg/kg/injection, schedule: Q## X016 (ip), vehicle: carboxymethylcellulose (CMC)
  survivor count: 10 of 10
dose: 144.0 mg/kg/injection, schedule: Q## X032 (ip), vehicle: carboxymethylcellulose (CMC)
  survivor count: 5 of 10
dose: 150.0 mg/kg/injection, schedule: Q01DX009 (ip), vehicle: saline
  survivor count: 3 of 6 and 5 of 6
dose: 150.0 mg/kg/injection, schedule: Q01DX010 (ip), vehicle: saline
  survivor count: 5 of 6 and 6 of 6
dose: 180.0 mg/kg/injection, schedule: Q01DX001 (oral), vehicle: carboxymethylcellulose (CMC)
  T/C: 139 and 144 % of control
dose: 180.0 mg/kg/injection, schedule: Q01DX001 (sc), vehicle: carboxymethylcellulose (CMC)
  T/C: 132 % of control
dose: 180.0 mg/kg/injection, schedule: Q## X003 (oral), vehicle: carboxymethylcellulose (CMC)
  T/C: 128 % of control
dose: 200.0 mg/kg/injection, schedule: Q01DX005 (ip), vehicle: saline
  survivor count: 3 of 6 (2×) and 5 of 6
dose: 215.0 mg/kg/injection, schedule: Q01DX001 (ip), vehicle: carboxymethylcellulose (CMC)
  T/C: 129 and 137 % of control
dose: 216.0 mg/kg/injection, schedule: Q## X032 (ip), vehicle: carboxymethylcellulose (CMC)
  survivor count: 3 of 10
dose: 288.0 mg/kg/injection, schedule: Q## X008 (ip), vehicle: carboxymethylcellulose (CMC)
  survivor count: 7 of 10
dose: 288.0 mg/kg/injection, schedule: Q## X016 (ip), vehicle: carboxymethylcellulose (CMC)
  survivor count: 9 of 10
dose: 300.0 mg/kg/injection, schedule: Q01DX010 (ip), vehicle: saline
  survivor count: 0 of 6
dose: 322.0 mg/kg/injection, schedule: Q01DX001 (ip), vehicle: carboxymethylcellulose (CMC)
  survivor count: 8 of 10
dose: 324.0 mg/kg/injection, schedule: Q## X032 (ip), vehicle: carboxymethylcellulose (CMC)
  survivor count: 1 of 10
dose: 360.0 mg/kg/injection, schedule: Q01DX001 (ip), vehicle: carboxymethylcellulose (CMC)
  survivor count: 10 of 10
dose: 360.0 mg/kg/injection, schedule: Q01DX001 (oral), vehicle: carboxymethylcellulose (CMC)
  T/C: 143 and 144 % of control
dose: 484.0 mg/kg/injection, schedule: Q01DX001 (ip), vehicle: carboxymethylcellulose (CMC)
  survivor count: 6 of 10
dose: 600.0 mg/kg/injection, schedule: Q01DX001 (ip), vehicle: carboxymethylcellulose (CMC)
  survivor count: 3 of 10
dose: 190.0 micrograms/kg/injection, schedule: Q01DX Z (ip), vehicle: saline
  T/C: 136 % of control

— PubChem BioAssay AID248 (DTP/NCI, 2004)
